PubChem BioAssay AID743121, NCATS – 2013
Assay: 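Knock-downs that sensitise breast cancer cells to camptothecin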 (primary screen). Cells: MDA-MB-231 cells, a human breast cancer line. Reagents: single siRNA against human genes, 20 nM siRNA (0.8 pmol per well). Timing: 120 h (drug added 48 h after transfection, read 72 h later). Treatment: camptothecin 20 nM (about EC30) for 72 h; vehicle 0.1% DMSO in parallel plates. Detection: 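Cell viability by ATP luminescence (CellTiter-Glo) as % of non-targeting siRNA wells, and the log2 ratio of viability without drug over viability with camptothecin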. Scale: log2 vehicle/camptothecin viability: higher = stronger sensitisation to camptothecin; viability with camptothecin: higher = more viable cells. Units: viability with camptothecin in % of control. Active means: 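Active genes have an RSA gene-level p-value below 0.001, computed from the ratios of their separate siRNAs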.
The whole screen tested about 26,000 reagents; this is an unselected part. In the full data, 167 (0.63%) are marked active. 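Calls are per gene from RSA p-values that are not deposited; an individual active-marked siRNA can sensitise only weakly.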 Entries without a mark were called inactive. Reagents against one gene are numbered here. Further read-outs or replicates are left out here.

{"target": "CD274", "reagent": 1, "log2 vehicle/camptothecin viability": 0.223, "viability with camptothecin": 96.8}
{"target": "CD274", "reagent": 2, "log2 vehicle/camptothecin viability": 0.107, "viability with camptothecin": 90.4}
{"target": "CD274", "reagent": 3, "log2 vehicle/camptothecin viability": -0.0127, "viability with camptothecin": 121}
{"target": "TAOK3", "reagent": 1, "log2 vehicle/camptothecin viability": -0.505, "viability with camptothecin": 94.1}
{"target": "TAOK3", "reagent": 2, "log2 vehicle/camptothecin viability": -0.26, "viability with camptothecin": 84.6}
{"target": "TAOK3", "reagent": 3, "log2 vehicle/camptothecin viability": -0.14, "viability with camptothecin": 100}
{"target": "TAOK3", "reagent": 4, "log2 vehicle/camptothecin viability": -0.214, "viability with camptothecin": 42.8}
{"target": "SMAD4", "reagent": 1, "log2 vehicle/camptothecin viability": -0.491, "viability with camptothecin": 73}
{"target": "SMAD4", "reagent": 2, "log2 vehicle/camptothecin viability": 0.146, "viability with camptothecin": 65.7}
{"target": "SMAD4", "reagent": 3, "log2 vehicle/camptothecin viability": -0.306, "viability with camptothecin": 51.8}
{"target": "SMAD4", "reagent": 4, "log2 vehicle/camptothecin viability": -0.401, "viability with camptothecin": 82.8}
{"target": "OAS1", "reagent": 1, "log2 vehicle/camptothecin viability": -0.0501, "viability with camptothecin": 91.3}
{"target": "OAS1", "reagent": 2, "log2 vehicle/camptothecin viability": -0.152, "viability with camptothecin": 70.8}
{"target": "OAS1", "reagent": 3, "log2 vehicle/camptothecin viability": 0.163, "viability with camptothecin": 41.4}
{"target": "OAS1", "reagent": 4, "log2 vehicle/camptothecin viability": 0.621, "viability with camptothecin": 43.9}
{"target": "IRS2", "reagent": 1, "log2 vehicle/camptothecin viability": -0.431, "viability with camptothecin": 86}
{"target": "IRS2", "reagent": 2, "log2 vehicle/camptothecin viability": -0.0224, "viability with camptothecin": 90.3}
{"target": "IRS2", "reagent": 3, "log2 vehicle/camptothecin viability": 0.0621, "viability with camptothecin": 89.1}
{"target": "CALM2", "reagent": 1, "log2 vehicle/camptothecin viability": -0.128, "viability with camptothecin": 86}
{"target": "CALM2", "reagent": 2, "log2 vehicle/camptothecin viability": -0.183, "viability with camptothecin": 80.8}
{"target": "CALM2", "reagent": 3, "log2 vehicle/camptothecin viability": -0.551, "viability with camptothecin": 83.9}
{"target": "CALM2", "reagent": 4, "log2 vehicle/camptothecin viability": 0.917, "viability with camptothecin": 32.5}

Limited to “log2 vehicle/camptothecin viability”, for 5 of the entries above:
SMAD4 #4	-0.401
OAS1 #1	-0.0501
OAS1 #2	-0.152
OAS1 #3	0.163
OAS1 #4	0.621

Next results follow:
{"target": "ABCC1", "reagent": 1, "log2 vehicle/camptothecin viability": -0.364, "viability with camptothecin": 83.2}
{"target": "ABCC1", "reagent": 2, "log2 vehicle/camptothecin viability": 0.0888, "viability with camptothecin": 46}
{"target": "ABCC1", "reagent": 3, "log2 vehicle/camptothecin viability": -0.306, "viability with camptothecin": 82.8}
{"target": "ABCC1", "reagent": 4, "log2 vehicle/camptothecin viability": 0.0621, "viability with camptothecin": 82.3}
{"target": "F8", "reagent": 1, "log2 vehicle/camptothecin viability": -0.449, "viability with camptothecin": 76}
{"target": "F8", "reagent": 2, "log2 vehicle/camptothecin viability": 0.143, "viability with camptothecin": 91}
{"target": "F8", "reagent": 3, "log2 vehicle/camptothecin viability": -0.0419, "viability with camptothecin": 81.2}
{"target": "F8", "reagent": 4, "log2 vehicle/camptothecin viability": -0.266, "viability with camptothecin": 121}
{"target": "ELN", "reagent": 1, "log2 vehicle/camptothecin viability": -0.0622, "viability with camptothecin": 74.6}
{"target": "ELN", "reagent": 2, "log2 vehicle/camptothecin viability": -0.0938, "viability with camptothecin": 49.2}
{"target": "ELN", "reagent": 3, "log2 vehicle/camptothecin viability": -0.485, "viability with camptothecin": 71.1}
{"target": "ELN", "reagent": 4, "log2 vehicle/camptothecin viability": 0.293, "viability with camptothecin": 62.5}
{"target": "ZNF101", "reagent": 1, "log2 vehicle/camptothecin viability": -0.199, "viability with camptothecin": 111}
{"target": "ZNF101", "reagent": 2, "log2 vehicle/camptothecin viability": 0.293, "viability with camptothecin": 46.9}
{"target": "ZNF101", "reagent": 3, "log2 vehicle/camptothecin viability": -0.305, "viability with camptothecin": 119}
{"target": "ADAM23", "reagent": 1, "log2 vehicle/camptothecin viability": -0.378, "viability with camptothecin": 72.2}
{"target": "ADAM23", "reagent": 2, "log2 vehicle/camptothecin viability": -0.0949, "viability with camptothecin": 96.1}
{"target": "ADAM23", "reagent": 3, "log2 vehicle/camptothecin viability": -0.185, "viability with camptothecin": 90.6}
{"target": "ADAM23", "reagent": 4, "log2 vehicle/camptothecin viability": -0.123, "viability with camptothecin": 95.8}
{"target": "TRIM62", "reagent": 1, "log2 vehicle/camptothecin viability": -0.461, "viability with camptothecin": 86.9}
{"target": "TRIM62", "reagent": 2, "log2 vehicle/camptothecin viability": 0.341, "viability with camptothecin": 17.6}
{"target": "TRIM62", "reagent": 3, "log2 vehicle/camptothecin viability": -0.333, "viability with camptothecin": 54.6}
{"target": "TCF20", "reagent": 1, "log2 vehicle/camptothecin viability": -0.234, "viability with camptothecin": 69.5}
{"target": "TCF20", "reagent": 2, "log2 vehicle/camptothecin viability": -0.082, "viability with camptothecin": 39.8}
{"target": "TCF20", "reagent": 3, "log2 vehicle/camptothecin viability": 0.14, "viability with camptothecin": 75.1}
{"target": "TCF20", "reagent": 4, "log2 vehicle/camptothecin viability": -0.275, "viability with camptothecin": 78.1}
